Where a name gives a salt, the structure may show the parent alone. ± gives the standard deviation of the averaged measurements. Some of the results follow. The data scatter; read single values as rough.
How the values were obtained:
hAMSC donor 1 [1] = assay: Hoechst total cell count ratio vs vehicle control; higher = more cells (less toxicity)
hAMSC donor 2 [2] = assay: as above
hAMSC donor 1 [3] = assay: transgenic luciferase activity (RLU/mg protein) fold change vs vehicle control (ratio); higher = more transgene expression
hAMSC donor 1 [4] = assay: transfection efficiency (EGFP+ cells / Hoechst count) fold change vs vehicle control (ratio); hAMSC are human adipose-derived mesenchymal stem cells given an EGFP-luciferase plasmid by lipofection; higher = enhanced transfection
hAMSC donor 2 [5] = assay: as above
[6] = priming compound concentration 0.2 µM
[7] = priming compound concentration 1.7 µM
[8] = priming compound concentration 13 µM

| SMILES | Hoechst total cell count ratio (hAMSC donor 1 [1]; [6]) | Hoechst total cell count ratio (hAMSC donor 1 [1]; [7]) | Hoechst total cell count ratio (hAMSC donor 1 [1]; [8]) | Hoechst total cell count ratio (hAMSC donor 2 [2]; [6]) | Hoechst total cell count ratio (hAMSC donor 2 [2]; [7]) | Hoechst total cell count ratio (hAMSC donor 2 [2]; [8]) | transgenic luciferase activity (hAMSC donor 1 [3]; [7]) | transfection efficiency (hAMSC donor 1 [4]; [6]) | transfection efficiency (hAMSC donor 1 [4]; [7]) | transfection efficiency (hAMSC donor 1 [4]; [8]) | transfection efficiency (hAMSC donor 2 [5]; [6]) | transfection efficiency (hAMSC donor 2 [5]; [7]) | transfection efficiency (hAMSC donor 2 [5]; [8]) | transgenic luciferase activity (hAMSC donor 1 [3]; [8]) |
| --- | --- | --- | --- | --- | --- | --- | --- | --- | --- | --- | --- | --- | --- | --- |
| Cc1nccn1CC1CCc2c(c3ccccc3n2C)C1=O (centres undefined) [Ondansetron] | 1.36 ± 0.17 | 1.28 ± 0.23 | 1.249 ± 0.004 | 0.636 ± 0.15 | 1.17 ± 0.13 | 1.02 ± 0.35 | 0.825 ± 0.18 | 1.18 ± 0.31 | 0.99 ± 0.29 | 1.15 ± 0.17 | 1.38 ± 0.39 | 1.05 ± 0.11 | 1 ± 0.17 | – |
| CCOC(=O)[C@H](CCc1ccccc1)N[C@@H](C)C(=O)N1[C@H](C(=O)O)C[C@@H]2CCC[C@@H]21 [Ramipril] | 1.33 ± 0.11 | 1.09 ± 0.068 | 1.18 ± 0.22 | 0.814 ± 0.092 | 1.24 ± 0.083 | 1.44 ± 0.063 | – | 0.787 ± 0.11 | 1.11 ± 0.18 | 0.703 ± 0.021 | 1.52 ± 0.1 | 1.25 ± 0.13 | 0.698 ± 0.049 | 0.525 ± 0.2 |
| Nc1nc(=O)[nH]cc1F [Flucytosine] | 1.46 ± 0.36 | 1.23 ± 0.18 | 1.2 ± 0.12 | 0.905 ± 0.11 | 1.04 ± 0.024 | 0.946 ± 0.21 | 0.847 ± 0.38 | 1.18 ± 0.49 | 0.967 ± 0.32 | 1.17 ± 0.18 | 1.36 ± 0.12 | 1.19 ± 0.33 | 1.9 ± 0.63 | – |
| COCCCOc1ccnc(C[S+]([O-])c2nc3ccccc3[nH]2)c1C (centres undefined) [Rabeprazole] | 1.33 ± 0.24 | 1.24 ± 0.27 | 0.99 ± 0.11 | 1.53 ± 0.21 | 1.05 ± 0.095 | 1.22 ± 0.095 | – | 1.17 ± 0.34 | 1.38 ± 0.32 | 1.49 ± 0.28 | 0.595 ± 0.12 | 1.1 ± 0.062 | 1.31 ± 0.11 | 0.825 ± 0.12 |
| COc1cc(C(=O)NS(=O)(=O)c2ccccc2C)ccc1Cc1cn(C)c2ccc(NC(=O)OC3CCCC3)cc12 [Zafirlukast] | 1.48 ± 0.18 | 1.06 ± 0.072 | 1.29 ± 0.075 | 1.24 ± 0.18 | 1.37 ± 0.052 | 1.4 ± 0.21 | – | 1.13 ± 0.2 | 1.32 ± 0.16 | 1 ± 0.32 | 1.21 ± 0.24 | 0.945 ± 0.18 | 0.809 ± 0.16 | 1.28 ± 1.1 |
| NC(=O)N1c2ccccc2CC(=O)c2ccccc21 [Oxcarbazepine] | 1.36 ± 0.057 | 1.11 ± 0.095 | 1.28 ± 0.12 | 1.04 ± 0.068 | 1.49 ± 0.083 | 1.16 ± 0.16 | – | 1.05 ± 0.2 | 1.59 ± 0.16 | 0.95 ± 0.28 | 1.34 ± 0.54 | 0.857 ± 0.14 | 0.765 ± 0.13 | 0.508 ± 0.27 |
| Cc1ncc([N+](=O)[O-])n1CC(O)CCl (centres undefined) [Ornidazole] | 1.2 ± 0.031 | 1.2 ± 0.07 | 1.38 ± 0.14 | 0.958 ± 0.29 | 1.3 ± 0.35 | 1.55 ± 0.31 | – | 0.958 ± 0.15 | 1.45 ± 0.1 | 0.977 ± 0.12 | 1.27 ± 0.11 | 1.05 ± 0.18 | 0.651 ± 0.088 | 0.677 ± 0.047 |
| O=C1c2cccc3c2[C@H](CCC3)CN1[C@@H]1CN2CCC1CC2 [Palonosetron hydrochloride] | 1.35 ± 0.059 | 1.29 ± 0.31 | 1.3 ± 0.22 | 0.932 ± 0.16 | 1.06 ± 0.064 | 0.989 ± 0.13 | – | 0.947 ± 0.09 | 1.44 ± 0.36 | 0.972 ± 0.12 | 1.04 ± 0.17 | 1.57 ± 0.36 | 0.98 ± 0.21 | 0.708 ± 0.21 |
